Results published in the supplement of paper PMC10849652.
Some of the results follow.

Sequences of proteins named here, by UniProt entry; tags and fusion partners are left off. A change or cut given only in a name is not applied to a line headed by its entry.
UniProt P53805: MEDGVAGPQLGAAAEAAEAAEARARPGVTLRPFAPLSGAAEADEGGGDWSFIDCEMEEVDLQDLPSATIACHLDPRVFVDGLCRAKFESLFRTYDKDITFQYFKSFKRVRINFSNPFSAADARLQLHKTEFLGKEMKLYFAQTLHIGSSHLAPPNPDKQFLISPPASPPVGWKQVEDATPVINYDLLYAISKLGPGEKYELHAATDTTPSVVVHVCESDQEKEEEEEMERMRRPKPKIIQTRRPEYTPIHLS
UniProt Q9Y3B8: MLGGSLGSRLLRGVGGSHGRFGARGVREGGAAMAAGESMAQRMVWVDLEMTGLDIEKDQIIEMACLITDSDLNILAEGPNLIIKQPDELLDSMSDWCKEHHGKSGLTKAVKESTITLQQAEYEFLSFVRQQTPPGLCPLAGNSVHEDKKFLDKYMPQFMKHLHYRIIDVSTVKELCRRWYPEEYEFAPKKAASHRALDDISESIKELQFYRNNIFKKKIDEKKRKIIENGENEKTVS
UniProt Q8NC44: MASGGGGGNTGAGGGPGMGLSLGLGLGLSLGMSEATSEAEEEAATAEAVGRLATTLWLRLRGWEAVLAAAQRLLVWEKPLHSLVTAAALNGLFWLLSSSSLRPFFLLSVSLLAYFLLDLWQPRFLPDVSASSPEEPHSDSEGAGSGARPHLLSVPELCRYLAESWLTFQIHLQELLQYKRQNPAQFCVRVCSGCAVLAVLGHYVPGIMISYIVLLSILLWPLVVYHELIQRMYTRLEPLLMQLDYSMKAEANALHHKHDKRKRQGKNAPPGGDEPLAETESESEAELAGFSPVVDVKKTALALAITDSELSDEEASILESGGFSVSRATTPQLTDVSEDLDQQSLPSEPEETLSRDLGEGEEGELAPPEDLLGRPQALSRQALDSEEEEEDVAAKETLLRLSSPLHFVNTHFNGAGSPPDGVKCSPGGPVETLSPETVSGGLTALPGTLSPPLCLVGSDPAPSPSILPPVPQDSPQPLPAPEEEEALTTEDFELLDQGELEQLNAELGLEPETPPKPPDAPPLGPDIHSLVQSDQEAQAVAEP
UniProt Q8TAC1: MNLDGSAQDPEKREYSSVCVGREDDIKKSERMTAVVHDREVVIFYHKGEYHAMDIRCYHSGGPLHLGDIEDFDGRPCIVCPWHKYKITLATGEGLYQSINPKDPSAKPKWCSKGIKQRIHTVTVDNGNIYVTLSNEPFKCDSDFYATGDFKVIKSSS
UniProt P40937, whole entry, looked up: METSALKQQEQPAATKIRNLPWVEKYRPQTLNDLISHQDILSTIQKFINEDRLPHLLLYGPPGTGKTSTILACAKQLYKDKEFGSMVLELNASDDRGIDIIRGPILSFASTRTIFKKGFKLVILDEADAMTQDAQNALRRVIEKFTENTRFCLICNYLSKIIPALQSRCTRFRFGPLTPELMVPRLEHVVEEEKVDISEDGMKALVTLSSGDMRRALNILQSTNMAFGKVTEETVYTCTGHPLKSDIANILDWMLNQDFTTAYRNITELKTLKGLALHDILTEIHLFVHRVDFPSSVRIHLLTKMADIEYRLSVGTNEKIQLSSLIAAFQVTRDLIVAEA
UniProt Q9P260: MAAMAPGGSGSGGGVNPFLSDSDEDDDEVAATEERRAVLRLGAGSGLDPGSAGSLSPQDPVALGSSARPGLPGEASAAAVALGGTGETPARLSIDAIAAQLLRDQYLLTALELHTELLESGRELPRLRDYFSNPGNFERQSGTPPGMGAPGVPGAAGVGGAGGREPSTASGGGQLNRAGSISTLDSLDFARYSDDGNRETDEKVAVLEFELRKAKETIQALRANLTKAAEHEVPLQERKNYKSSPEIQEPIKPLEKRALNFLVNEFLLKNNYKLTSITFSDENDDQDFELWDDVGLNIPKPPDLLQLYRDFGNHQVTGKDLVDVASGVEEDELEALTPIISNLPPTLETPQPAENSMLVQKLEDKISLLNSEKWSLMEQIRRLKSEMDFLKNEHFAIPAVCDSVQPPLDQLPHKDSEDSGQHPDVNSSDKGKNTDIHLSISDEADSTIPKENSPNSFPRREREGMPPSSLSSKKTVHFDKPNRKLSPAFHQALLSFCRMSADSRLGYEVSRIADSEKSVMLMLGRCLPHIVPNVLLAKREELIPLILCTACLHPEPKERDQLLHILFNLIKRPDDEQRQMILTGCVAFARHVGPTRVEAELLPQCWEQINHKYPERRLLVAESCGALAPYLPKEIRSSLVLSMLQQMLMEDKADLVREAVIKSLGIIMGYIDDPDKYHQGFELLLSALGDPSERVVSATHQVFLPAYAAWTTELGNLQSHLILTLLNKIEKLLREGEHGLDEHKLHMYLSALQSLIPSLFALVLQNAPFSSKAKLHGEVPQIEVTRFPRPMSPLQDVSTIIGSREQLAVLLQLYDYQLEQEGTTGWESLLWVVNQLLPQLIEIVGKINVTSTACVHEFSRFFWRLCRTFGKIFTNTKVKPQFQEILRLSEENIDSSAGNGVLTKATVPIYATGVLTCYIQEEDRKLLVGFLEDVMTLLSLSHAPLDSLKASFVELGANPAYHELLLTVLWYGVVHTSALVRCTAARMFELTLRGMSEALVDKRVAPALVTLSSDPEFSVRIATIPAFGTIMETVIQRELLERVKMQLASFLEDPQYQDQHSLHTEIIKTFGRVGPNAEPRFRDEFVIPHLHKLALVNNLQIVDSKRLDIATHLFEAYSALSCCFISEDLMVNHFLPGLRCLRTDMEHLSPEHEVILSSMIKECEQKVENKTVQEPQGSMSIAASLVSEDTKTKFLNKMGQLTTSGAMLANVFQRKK
UniProt Q5T8P6: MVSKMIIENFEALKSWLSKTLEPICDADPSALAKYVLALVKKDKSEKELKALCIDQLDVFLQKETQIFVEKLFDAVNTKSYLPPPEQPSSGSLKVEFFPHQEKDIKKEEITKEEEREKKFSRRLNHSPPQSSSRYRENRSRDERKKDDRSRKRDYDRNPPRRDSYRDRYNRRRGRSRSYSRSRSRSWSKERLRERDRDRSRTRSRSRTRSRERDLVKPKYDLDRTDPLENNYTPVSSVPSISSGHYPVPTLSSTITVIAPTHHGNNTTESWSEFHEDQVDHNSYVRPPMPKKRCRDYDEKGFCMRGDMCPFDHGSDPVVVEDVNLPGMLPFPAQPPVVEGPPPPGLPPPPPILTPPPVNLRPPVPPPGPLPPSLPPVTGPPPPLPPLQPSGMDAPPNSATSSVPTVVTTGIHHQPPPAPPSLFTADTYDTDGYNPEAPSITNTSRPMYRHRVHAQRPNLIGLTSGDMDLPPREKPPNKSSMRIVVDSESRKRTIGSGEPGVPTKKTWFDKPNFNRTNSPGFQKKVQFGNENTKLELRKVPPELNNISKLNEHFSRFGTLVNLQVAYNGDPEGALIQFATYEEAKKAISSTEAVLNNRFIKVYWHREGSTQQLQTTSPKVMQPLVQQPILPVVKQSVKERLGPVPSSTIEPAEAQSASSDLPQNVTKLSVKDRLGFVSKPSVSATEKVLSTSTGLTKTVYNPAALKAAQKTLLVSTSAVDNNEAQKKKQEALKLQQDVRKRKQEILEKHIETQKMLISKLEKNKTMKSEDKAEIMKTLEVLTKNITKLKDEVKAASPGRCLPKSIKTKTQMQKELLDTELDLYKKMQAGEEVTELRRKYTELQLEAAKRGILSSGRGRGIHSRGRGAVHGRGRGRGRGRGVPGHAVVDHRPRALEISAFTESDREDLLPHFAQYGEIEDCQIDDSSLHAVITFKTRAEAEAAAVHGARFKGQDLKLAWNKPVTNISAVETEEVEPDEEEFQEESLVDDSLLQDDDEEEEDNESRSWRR
UniProt Q15293: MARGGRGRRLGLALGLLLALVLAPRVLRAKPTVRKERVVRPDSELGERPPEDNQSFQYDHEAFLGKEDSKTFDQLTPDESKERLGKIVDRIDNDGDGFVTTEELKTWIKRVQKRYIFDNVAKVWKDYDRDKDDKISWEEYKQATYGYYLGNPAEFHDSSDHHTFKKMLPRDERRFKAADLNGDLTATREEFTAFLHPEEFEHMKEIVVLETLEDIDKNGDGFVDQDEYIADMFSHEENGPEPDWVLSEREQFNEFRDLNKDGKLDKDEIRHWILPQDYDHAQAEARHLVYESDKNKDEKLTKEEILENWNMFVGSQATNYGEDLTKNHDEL
UniProt Q9Y580: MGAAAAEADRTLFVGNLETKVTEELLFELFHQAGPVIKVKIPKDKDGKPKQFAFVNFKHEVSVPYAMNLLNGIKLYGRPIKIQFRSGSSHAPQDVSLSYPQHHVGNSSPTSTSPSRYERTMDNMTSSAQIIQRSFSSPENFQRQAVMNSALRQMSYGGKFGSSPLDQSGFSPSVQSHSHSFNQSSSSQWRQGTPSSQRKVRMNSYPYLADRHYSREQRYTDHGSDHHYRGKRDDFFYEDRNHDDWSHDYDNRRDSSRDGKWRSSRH
UniProt Q92546: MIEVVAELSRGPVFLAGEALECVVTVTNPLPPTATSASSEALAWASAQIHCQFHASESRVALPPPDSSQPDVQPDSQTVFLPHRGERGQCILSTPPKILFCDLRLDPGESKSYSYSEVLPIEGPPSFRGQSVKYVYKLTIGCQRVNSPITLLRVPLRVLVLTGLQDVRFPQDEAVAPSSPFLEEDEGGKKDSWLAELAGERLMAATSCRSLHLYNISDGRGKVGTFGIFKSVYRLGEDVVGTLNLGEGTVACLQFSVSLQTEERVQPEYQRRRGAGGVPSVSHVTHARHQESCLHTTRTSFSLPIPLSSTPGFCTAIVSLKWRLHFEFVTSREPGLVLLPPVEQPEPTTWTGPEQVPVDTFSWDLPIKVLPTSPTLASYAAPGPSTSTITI
UniProt Q96D71: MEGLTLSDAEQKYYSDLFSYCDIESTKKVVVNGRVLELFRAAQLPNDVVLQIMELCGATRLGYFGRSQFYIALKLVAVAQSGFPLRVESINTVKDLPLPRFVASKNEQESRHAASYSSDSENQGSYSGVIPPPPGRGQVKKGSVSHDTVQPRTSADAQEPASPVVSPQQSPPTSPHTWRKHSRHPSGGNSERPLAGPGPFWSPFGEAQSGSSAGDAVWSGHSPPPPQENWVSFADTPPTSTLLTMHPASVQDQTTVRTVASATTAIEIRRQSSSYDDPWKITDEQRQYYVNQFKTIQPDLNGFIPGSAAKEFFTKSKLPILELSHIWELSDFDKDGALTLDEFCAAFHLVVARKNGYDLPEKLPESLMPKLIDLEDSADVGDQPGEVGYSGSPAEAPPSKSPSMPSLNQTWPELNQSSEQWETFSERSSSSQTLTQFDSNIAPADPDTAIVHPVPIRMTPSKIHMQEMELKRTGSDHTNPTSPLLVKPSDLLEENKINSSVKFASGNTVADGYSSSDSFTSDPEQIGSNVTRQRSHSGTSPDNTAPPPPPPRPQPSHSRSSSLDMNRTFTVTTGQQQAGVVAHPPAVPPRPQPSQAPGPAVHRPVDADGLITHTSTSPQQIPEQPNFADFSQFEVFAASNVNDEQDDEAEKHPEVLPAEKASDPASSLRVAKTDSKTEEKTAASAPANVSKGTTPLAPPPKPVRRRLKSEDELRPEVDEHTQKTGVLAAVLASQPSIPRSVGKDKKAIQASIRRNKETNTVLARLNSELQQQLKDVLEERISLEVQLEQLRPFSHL
UniProt Q9P2N5: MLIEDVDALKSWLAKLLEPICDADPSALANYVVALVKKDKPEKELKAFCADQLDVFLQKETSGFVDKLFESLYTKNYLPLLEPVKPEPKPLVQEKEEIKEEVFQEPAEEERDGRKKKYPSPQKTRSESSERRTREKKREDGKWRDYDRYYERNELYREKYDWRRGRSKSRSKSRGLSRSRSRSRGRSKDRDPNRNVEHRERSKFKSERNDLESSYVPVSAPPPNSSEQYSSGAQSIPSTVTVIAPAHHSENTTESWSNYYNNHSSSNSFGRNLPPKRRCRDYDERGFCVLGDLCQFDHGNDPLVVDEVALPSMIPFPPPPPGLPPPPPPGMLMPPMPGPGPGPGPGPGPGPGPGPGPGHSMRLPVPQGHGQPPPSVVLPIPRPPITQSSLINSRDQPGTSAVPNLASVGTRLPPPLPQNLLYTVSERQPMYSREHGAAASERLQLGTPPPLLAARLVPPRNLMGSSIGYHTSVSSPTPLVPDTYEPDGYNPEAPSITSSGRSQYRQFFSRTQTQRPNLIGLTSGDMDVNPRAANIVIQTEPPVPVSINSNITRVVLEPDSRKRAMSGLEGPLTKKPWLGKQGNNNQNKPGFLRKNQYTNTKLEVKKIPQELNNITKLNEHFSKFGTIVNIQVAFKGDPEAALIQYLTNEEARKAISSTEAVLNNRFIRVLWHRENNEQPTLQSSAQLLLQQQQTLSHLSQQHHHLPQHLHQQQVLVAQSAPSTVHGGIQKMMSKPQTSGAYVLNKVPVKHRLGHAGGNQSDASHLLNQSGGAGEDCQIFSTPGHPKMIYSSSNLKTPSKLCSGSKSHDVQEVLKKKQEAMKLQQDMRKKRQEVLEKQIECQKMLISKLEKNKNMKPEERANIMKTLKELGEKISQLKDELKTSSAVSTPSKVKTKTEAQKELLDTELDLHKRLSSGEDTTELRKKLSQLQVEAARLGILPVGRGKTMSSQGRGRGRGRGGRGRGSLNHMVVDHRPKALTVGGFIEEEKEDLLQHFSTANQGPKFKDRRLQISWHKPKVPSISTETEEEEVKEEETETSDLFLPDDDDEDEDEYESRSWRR

How the values were obtained:
Assay in all cases: log2 fold change, soluble protein after heating vs DMSO (PISA); higher = thermal stabilisation; K562 lysate, 10 uM; active = over 0.2 and 3.5 SD of the protein, either way, in both replicates (recomputed)
erlotinib = compound: C#Cc1cccc(Nc2ncnc3cc(OCCOC)c(OCCOC)cc23)c1 [erlotinib]
In short: (§1)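 Following dounce homogenisation of K562 pellets in PBS pH 7.4 with 1 mM MgCl2, crude extract at 1 mg/mL protein was incubated for 30 min with 10 μM compound. Aliquots were then heated for 3 min over 48°C-58°C and pooled, NP-40 was added to 0.5% at 4°C, and soluble protein was recovered as the supernatant at 21,000xg for 90 min. Channel-sum-equalised TMTpro 16plex LC-MS/MS quantified this protein. Each value, from duplicates, is a log-two fold change in thermal stability relative to solvent controls.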

[1] = compound: C/C(=N\NC(=O)C1=CC(=CC=C1)S(=O)(=O)N2CCOCC2)/C3=C(C=CC(=C3)Cl)O
In short: as §1

[2] = compound: C1=CC(=CC=C1C2=NC3=C(N2)C=C(C=C3)C(=O)N)OC4=CC=C(C=C4)Cl
In short: as §1

[3] = compound: C1=CC2=C(C=CC(=C2)/C=C\3/C(=O)NC(=NCC4=CC=CS4)S3)N=C1
In short: as §1

[4] = compound: C1=CC2=NC=CN=C2C=C1/C=C/3\C(=O)NC(=O)S3
In short: as §1

[5] = compound: C1=CC=C(C=C1)C2=NC(=C(N2)C3=CC=NC=C3)C4=CC(=C(C=C4)Cl)O
In short: as §1

[6] = compound: C1=CC=C2C(=C1)C3=NNC4=CC=CC(=C43)C2=O
In short: as §1

[7] = compound: C1CCN(C1)C(=O)NC2=CC=CC(=C2)NC3=NC=C(C(=N3)NCCC4=CN=CN4)Br
In short: as §1

[8] = compound: C1CN(CCC1(CC2=CC=C(C=C2)Cl)N)C3=NC=NC4=C3C=CN4
In short: as §1

IRAK-1-4 Inhibitor I = compound: C1COCCN1CCN2C3=CC=CC=C3N=C2NC(=O)C4=CC(=CC=C4)[N+](=O)[O-] [IRAK-1-4 Inhibitor I]
In short: as §1

Measured: log2 fold change

RCAN1 (UniProt P53805)
inactive: erlotinib 0.06 | [1] -0.206 | [2] -0.033 | [3] -0.018 | [4] -0.04 | [5] 0.008 | [6] 0.045 | [7] -0.095 | [8] 0.016 | IRAK-1-4 Inhibitor I -0.024

REXO2 (UniProt Q9Y3B8)
inactive: erlotinib -0.005 | [1] 0.007 | [2] -0.026 | [3] -0.025 | [4] -0.005 | [5] 0.017 | [6] 0.03 | [7] 0.024 | [8] 0.001 | IRAK-1-4 Inhibitor I -0.005

RETREG2 (UniProt Q8NC44)
inactive: erlotinib -0.08 | [1] 0.036 | [2] -0.115 | [3] -0.055 | [4] 0.049 | [5] 0.035 | [6] -0.063 | [7] 0.022 | [8] 0.075 | IRAK-1-4 Inhibitor I 0.106

RBMX (UniProt P38159)
inactive: erlotinib 0 | [1] 0.019 | [2] -0.056 | [3] 0.016 | [4] 0.013 | [5] 0.025 | [6] 0.018 | [7] 0.06 | [8] 0.029 | IRAK-1-4 Inhibitor I -0.012

RFESD isoform 2 (UniProt Q8TAC1)
inactive: erlotinib 0.074 | [1] -0.054 | [2] 0.024 | [3] -0.003 | [4] 0.02 | [5] 0.015 | [6] -0.047 | [7] -0.003 | [8] 0.082 | IRAK-1-4 Inhibitor I -0.009

RBBP4 (UniProt Q09028)
inactive: erlotinib -0.007 | [1] 0.013 | [2] 0 | [3] -0.021 | [4] 0 | [5] 0.021 | [6] 0.02 | [7] 0.019 | [8] -0.001 | IRAK-1-4 Inhibitor I 0.051

REL isoform 2 (UniProt Q04864)
inactive: erlotinib 0.022 | [1] -0.005 | [2] -0.048 | [3] 0.016 | [4] -0.017 | [5] 0.037 | [6] -0.019 | [7] -0.011 | [8] -0.02 | IRAK-1-4 Inhibitor I 0.019

RFC5 (UniProt P40937)
inactive: erlotinib 0.02 | [1] 0.024 | [2] -0.025 | [3] 0.036 | [4] -0.012 | [5] 0.029 | [6] -0.074 | [7] 0.004 | [8] 0.023 | IRAK-1-4 Inhibitor I 0.019

RBM12 (UniProt Q9NTZ6)
inactive: erlotinib -0.011 | [1] -0.045 | [2] 0.018 | [3] 0.009 | [4] 0.008 | [5] 0.008 | [6] -0.037 | [7] -0.011 | [8] 0.026 | IRAK-1-4 Inhibitor I -0.021

RBPJ (UniProt Q06330)
inactive: erlotinib -0.009 | [1] -0.126 | [2] -0.005 | [3] 0.067 | [4] -0.016 | [5] -0.044 | [6] -0.027 | [7] -0.018 | [8] -0.032 | IRAK-1-4 Inhibitor I 0.022

REV1 (UniProt Q9UBZ9)
inactive: erlotinib -0.08 | [1] 0.008 | [2] -0.087 | [3] 0.011 | [4] -0.007 | [5] -0.02 | [6] 0.07 | [7] 0.021 | [8] -0.094 | IRAK-1-4 Inhibitor I -0.075

RELCH isoform 2 (UniProt Q9P260)
inactive: erlotinib 0.027 | [1] -0.06 | [2] 0.031 | [3] -0.128 | [4] -0.015 | [5] -0.053 | [6] 0.021 | [7] -0.009 | [8] 0.034 | IRAK-1-4 Inhibitor I -0.046

RBM26 isoform 2 (UniProt Q5T8P6)
inactive: erlotinib 0.016 | [1] 0.048 | [2] -0.033 | [3] 0.005 | [4] -0.02 | [5] 0.027 | [6] -0.013 | [7] -0.002 | [8] -0.005 | IRAK-1-4 Inhibitor I -0.008

RBM22 (UniProt Q9NW64)
inactive: erlotinib 0.028 | [1] -0.005 | [2] 0.025 | [3] -0.07 | [4] 0.013 | [5] -0.034 | [6] -0.021 | [7] -0.02 | [8] 0.009 | IRAK-1-4 Inhibitor I 0.018

RCN1 (UniProt Q15293)
inactive: erlotinib -0.026 | [1] -0.02 | [2] 0.057 | [3] 0.011 | [4] 0.019 | [5] 0.016 | [6] -0.032 | [7] 0.01 | [8] -0.018 | IRAK-1-4 Inhibitor I 0.009

RCOR1 (UniProt Q9UKL0)
inactive: erlotinib -0.023 | [1] 0.065 | [2] -0.004 | [3] -0.053 | [4] -0.051 | [5] 0.005 | [6] -0.035 | [7] -0.008 | [8] 0.017 | IRAK-1-4 Inhibitor I 0.003

RBM19 (UniProt Q9Y4C8)
inactive: erlotinib -0.042 | [1] 0.005 | [2] 0.02 | [3] 0.011 | [4] 0.036 | [5] 0.003 | [6] -0.039 | [7] -0.003 | [8] -0.027 | IRAK-1-4 Inhibitor I -0.03

RFX7 (UniProt Q2KHR2)
inactive: erlotinib -0.05 | [1] 0.007 | [2] -0.001 | [3] 0.095 | [4] 0.032 | [5] 0.027 | [6] 0.033 | [7] -0.04 | [8] 0.061 | IRAK-1-4 Inhibitor I 0.067

2 entries drawn at random from the list so far, as already listed:
RFC5 (UniProt P40937)
inactive: erlotinib 0.02 | [1] 0.024 | [2] -0.025 | [3] 0.036 | [4] -0.012 | [5] 0.029 | [6] -0.074 | [7] 0.004 | [8] 0.023 | IRAK-1-4 Inhibitor I 0.019

REV1 (UniProt Q9UBZ9)
inactive: erlotinib -0.08 | [1] 0.008 | [2] -0.087 | [3] 0.011 | [4] -0.007 | [5] -0.02 | [6] 0.07 | [7] 0.021 | [8] -0.094 | IRAK-1-4 Inhibitor I -0.075

Next records follow.

RFFL (UniProt Q8WZ73)
inactive: erlotinib 0.065 | [1] 0.138 | [2] -0.068 | [3] -0.029 | [4] 0.029 | [5] 0.008 | [6] 0 | [7] -0.073 | [8] -0.031 | IRAK-1-4 Inhibitor I -0.121

RETSAT (UniProt Q6NUM9)
inactive: erlotinib -0.092 | [1] 0.054 | [2] 0.026 | [3] 0.021 | [4] -0.092 | [5] -0.004 | [6] -0.152 | [7] -0.077 | [8] -0.052 | IRAK-1-4 Inhibitor I 0.148

RFX5 (UniProt P48382)
inactive: erlotinib -0.022 | [1] 0.085 | [2] 0.145 | [3] 0.006 | [4] -0.035 | [5] -0.038 | [6] -0.071 | [7] 0 | [8] -0.042 | IRAK-1-4 Inhibitor I -0.025

RBM7 (UniProt Q9Y580)
inactive: erlotinib 0 | [1] 0 | [2] -0.085 | [3] -0.058 | [4] 0.036 | [5] -0.013 | [6] -0.016 | [7] 0.056 | [8] 0.051 | IRAK-1-4 Inhibitor I -0.035

RGP1 (UniProt Q92546)
inactive: erlotinib 0.022 | [1] 0.129 | [2] 0.086 | [3] 0.201 | [4] -0.011 | [5] 0.257 | [6] -0.138 | [7] -0.049 | [8] 0.021 | IRAK-1-4 Inhibitor I 0.132

RDH14 (UniProt Q9HBH5)
inactive: erlotinib -0.019 | [1] 0.021 | [2] -0.056 | [3] -0.049 | [4] 0.037 | [5] 0.021 | [6] 0.024 | [7] 0.036 | [8] -0.057 | IRAK-1-4 Inhibitor I 0.018

REPS1 (UniProt Q96D71)
inactive: erlotinib -0.015 | [1] 0.003 | [2] 0.014 | [3] -0.021 | [4] -0.036 | [5] -0.018 | [6] -0.086 | [7] -0.055 | [8] -0.028 | IRAK-1-4 Inhibitor I 0.014

RBM27 (UniProt Q9P2N5)
inactive: erlotinib 0.009 | [1] -0.014 | [2] -0.009 | [3] -0.001 | [4] -0.003 | [5] 0.002 | [6] -0.009 | [7] -0.001 | [8] 0.018 | IRAK-1-4 Inhibitor I -0.008

REEP5 (UniProt Q00765)
inactive: erlotinib 0.017 | [1] -0.041 | [2] 0.022 | [3] 0.036 | [4] 0.001 | [5] -0.008 | [6] -0.077 | [7] -0.008 | [8] 0.015 | IRAK-1-4 Inhibitor I 0.025

RBM8A (UniProt Q9Y5S9)
inactive: erlotinib -0.061 | [1] 0.035 | [2] -0.002 | [3] 0.069 | [4] -0.042 | [5] 0.029 | [6] 0.093 | [7] 0.086 | [8] -0.076 | IRAK-1-4 Inhibitor I -0.059

RB1CC1 (UniProt Q8TDY2)
inactive: erlotinib 0.008 | [1] -0.004 | [2] 0.008 | [3] 0 | [4] -0.013 | [5] -0.009 | [6] -0.05 | [7] 0.003 | [8] 0.031 | IRAK-1-4 Inhibitor I -0.007

RFC4 (UniProt P35249)
inactive: erlotinib 0.006 | [1] 0.027 | [2] -0.033 | [3] -0.027 | [4] 0.018 | [5] 0.007 | [6] -0.056 | [7] -0.022 | [8] -0.012 | IRAK-1-4 Inhibitor I -0.018
